# Data reported in PubChem BioAssay AID504706 (National Center for Advancing Translational Sciences (NCATS), 2011).
# The campaign covered roughly 320,000 compounds. About 200 (0.062%) were called active. Inconclusive results (about 6%) are left out. The call rests on the fitted dose curve; in most records, active means well fitted activation curve with a large enough effect; inconclusive means small, poorly fitted or top-dose-only effect; inactive means no such curve, though single readings can be large or run the other way. The entries are a selection whose mix differs from that of the whole data set. The source gives no active or inactive call for entries shown without one.
# Assay: qHTS assay for re-activators of p53 using a Luc reporter; further: nearly all actives have a fitted effect of over 45% in size; on activity change, positive = activation: % of control where 0% means no effect
# Settings: H1299 p53-A138V BP100-luciferase reporter, luminescence, 24 h; activity change, positive = activation: at 92.2 µM (top of the series)
# Text: The p53 tumor suppressor plays a key role in suppression of tumorigenesis and in human carcinogenesis. It is frequently found inactivated in human cancers, mainly by point mutation. These point mutations are found in a wide variety of human cancers and a majority of them affect the DNA binding domain of the protein. The point mutations either alter native p53 conformation or abolish DNA contact. Additionally, cancer cells with p53 mutations are more resistant to chemo-radiation therapies. In order to find activators to reactivate this important protein, a cell-based screen for p53-dependent luciferase-reporter expression was developed. A p53-null H1299 lung cancer cell line was stably co-transfected with a temperature sensitive p53 mutant, p53-A138V, and a p53-responsive BP100-luciferase reporter. This cell model has previously been characterized in a gene chip profiling experiment for p53 activation. By lowering the culture temperature from 37 deg C (mutant p53 conformation) to 32 deg C (w.t. p53 conformation), a 30-60 fold increase in activation of luciferase activity is observed. At assay temperate, 37 deg C, basal reporter expression is very low and after the addition of detection reagent, a luminescent read-out is carried out. NIH Chemical Genomics Center [NCGC] NIH Molecular Libraries Probe Production Centers Network [MLPCN] MLPCN Grant: DA031088-01A1 Assay Provider (PI): Yi Sung, University of Michigan at Ann Arbor
# 5ul of 1000 cells per well are dispensed in all wells except column 4, into white solid-bottom TC-treated Kalypsys plates. The cells are kept in Opti-MEM and supplemented with 10% FBS and dispensed using a Multidrop (Thermo). Then using the Kalypsys pin-tool, 23nl of compounds are pinned. The compounds are starting concentration at 10mM, with 1:5 dilution, 4 points, and the control compound nocodazole is pinned in column 1 at 25mM, 1:3 dilution, in duplicate, 25mM nocodazole is pinned in column 2. Please note, all concentrations are working concentrations. 5ul of 1pM purified luciferase enzyme is dispensed using the Kalypsys dispenser in column 4. Plates are incubated for 24 hrs at 37 deg C, 5% CO2, and 95% humidity. Then 4ul of the detection reagent Amplite (ABD Bioquest) is added using the Kalypsys dispenser. Plates are incubated for 10 min at ambient room temperature and are then read on the ViewLux (Perkin Elmer) using a clear filter for a luminescent read-out.
# Potency means the concentration at half of the fitted maximal effect.
SMILES,"activity change, positive = activation",Potency
CC(/C=N/NC(=O)c1ccncc1)=C\c1ccc(C(C)C)cc1,inactive: 41.7%,
O=C(NCc1ccco1)c1nc2ccccc2s1,24%,
O=c1c2ccccc2oc2ccc(-c3ccc4cc[nH]c4c3)cc12,62.9%,
O=[N+]([O-])c1ccc(NC(=S)N2CCCC2)cc1,inactive: -37.5%,
O=C(Nc1ccccn1)c1onc2c1CCCC2,32.1%,
CCOC(=O)c1c(N2C(=O)C=CC2=O)sc(C)c1C,inactive: -26.8%,
Nc1c(C(=O)Nc2ccccc2)nnn1-c1ccc2c(c1)OCCO2,58.1%,
O=C1C2C3C=CC(C3)C2C(=O)N1c1ccc(-c2nc3ccccc3o2)cc1 (stereo not given),54.4%,
COc1cccc(C(=O)O/N=C(\N)c2ccncc2)c1OC,36.4%,
O=C(N/N=C/C(Cl)=C\c1ccccc1)c1cnccn1,,active: 12.6 µM
CC12COC3(C(=O)NCCc4ccccc4)CC1CCC32C (stereo not given),31.3%,
CC(=O)Nc1cc2nn(-c3ccccc3)nc2cc1C,42.5%,
COc1ccc2c(c1)C(=NNC(=O)c1ccccn1)c1cc(OC)ccc1-2,inactive: -49.7%,
Cc1cc(=O)oc2cc(NC(=O)c3cc(F)ccc3F)ccc12,22.8%,
CCc1ccc(NCc2nc3ccccc3c(=O)[nH]2)cc1,31.7%,
CN(C)c1ccc(N=Cc2nc(-c3ccccc3)oc2OC(=O)c2cccc(Cl)c2)cc1,80.3%,
COc1ccccc1C1/C(=C(/O)c2ccccc2)C(=O)C(=O)N1CC(C)C (stereo not given),45.2%,
N/C(=N\OC(=O)c1cccc(Cl)c1)c1ccccn1,63.4%,
Cc1ccc(-c2nc3cc(C)ccc3o2)cc1,51.8%,
Cc1ccn2c(c1)nc(=S)n2C(=O)c1ccccc1,316%,
Oc1ccc(/C=N/Nc2ccc(C(F)(F)F)cn2)c(O)c1,,active: 11.2 µM
Cc1cc(=O)n2[nH]c(C)c(-c3ccc(Cl)cc3)c2n1,inactive: -23.3%,
O=C(Nc1ccc2c(c1)OCCO2)c1ccc(Br)s1,132%,
COc1ccc(C(=O)C(CN2CCOCC2)c2ccccc2)cc1F (stereo not given),inactive: -48.5%,
c1ccc(-c2n[nH]c(-c3ccccn3)n2)nc1,51.9%,

SMILES,"activity change, positive = activation",Potency
O=C(Nc1nc2c(s1)C(=O)CCC2)c1ccccc1,33.1%,
Cc1cc(C(=O)Nc2ccc(Br)cn2)sc1C,71.7%,
O=C1c2cccc3c(O)ccc(c23)C(=O)N1c1ccc(Cl)cc1,72.7%,
N#CC1=C(N)C(C#N)(C#N)[C@H](c2c(F)cccc2F)[C@H]2CC3(CC=C12)OCCO3,inactive: -47.7%,
Cc1cccc(NC(=O)CSc2nc3nc4c(cc3c(=O)n2-c2ccccc2)CCCC4)c1,inactive: -30.2%,
COc1cc(NC(=O)C2CC(c3ccccc3Cl)=NO2)cc(OC)c1OC (stereo not given),inactive: -43.9%,
CC(C)NC(=S)N1CCN(S(C)(=O)=O)CC1,41.9%,
Cc1ccc(CSc2nc3ccncc3[nH]2)cc1,26.2%,
Cc1ccc(/C(N)=N/OC(=O)c2ccco2)cc1,,active: 17.8 µM
O=[N+]([O-])c1c(NCCCO)cc(Sc2ccc(Cl)cc2)c2nonc12,inactive: -39.5%,
Nc1c(S(=O)(=O)c2cccs2)c2nc3ccccc3nc2n1CC1CCCO1 (stereo not given),45.4%,
CS(=O)(=O)c1ccccc1C(=O)Nc1ccc(-c2nc3ccccc3[nH]2)cc1,inactive: -31.5%,
O=C(Nc1ccc2c(c1)CCC2)c1ccccc1,170%,
COc1ccc(NC(=O)CN(C)CC(=O)Nc2ccccc2SC)cc1,-11.4%,
CN(C)/C=N/c1cnc(C(=O)c2ccc(Cl)cc2)n1C,30%,
Cc1cc(C(=O)Nc2sc3c(c2C#N)CCCCC3)cs1,31.9%,
Cc1cs/c(=N\N=C\c2ccc(O)cc2)n1Cc1ccco1,68.7%,
Cc1ccc(S(=O)(=O)N2CCOCC2)cc1C(=O)OCC(=O)N(Cc1ccccc1)C(C)C,inactive: -18.7%,
CCOC(=O)C1=CN(Cc2cccc(F)c2)S(=O)(=O)NC1c1ccc(F)c(Cl)c1 (stereo not given),46.3%,
Cc1cccc(-n2ncc3c(N4CCCC4)ncnc32)c1,45.8%,
CCOC(=O)c1ccc(-c2nnc(-c3ccc(Cl)cc3Cl)o2)cc1,34.3%,
Cc1cc(C(=O)CSc2nc3ccccc3[nH]2)c(C)n1C,21.6%,
NC(=O)c1cc(Cl)ccc1OCC(=O)Nc1ccc2c(c1)OCO2,70%,
Cc1ccc2nc(-c3ccc(NC(=O)CCN4C(=O)c5ccccc5C4=O)cc3)sc2c1,164%,
C=CCNc1ncnc2c1cnn2-c1ccc(Cl)cc1,72.6%,

SMILES,"activity change, positive = activation",Potency
OCCN1CCN(c2ncnc3scc(-c4ccc(F)cc4)c23)CC1,inactive: -35.7%,
CC(C)c1ccc2oc(-c3ccc(N)cc3)nc2c1,60.2%,
COc1cccc(-c2nnc(-c3ccco3)o2)c1,,active: 39.8 µM
Cc1cc(C)nc(Nc2nc3ccccc3[nH]2)n1,36.4%,
CC(C)(C)c1ccc(Cn2cnc(-c3ccc([N+](=O)[O-])cc3)c2)cc1,,active: 28.2 µM
COc1ccc(S(=O)(=O)N(C(C)=O)c2ccc(OC(C)=O)c3ccccc23)cc1[N+](=O)[O-],inactive: -33.6%,
O=c1c2ccccc2nnn1CSc1ccccc1,82.9%,
O=C1N=C(N2CCCC2)S/C1=C\C=C\c1ccccc1,36.9%,
c1ccc(CCCc2nc(-c3ccccn3)no2)cc1,38.5%,
COc1ccccc1/C=C/C(=O)c1ccccc1,,active: 31.6 µM
CCc1nnc(N/N=C/c2cc(Br)c(O)cc2O)n1N,inactive: -70.3%,
Cn1c(N=Nc2ccccc2)nc2ccccc21,46.3%,
Cc1c(C(=O)Nc2ccc3c(c2)OCO3)oc2ccccc12,31%,
COc1ccc(-c2cc(-c3ccc(C)cc3)n[nH]2)c(O)c1,52.8%,
Cc1ccc(-c2nc(-c3cccnc3)no2)c(C)c1,26.8%,
CN=c1scc(-c2cccs2)n1/N=C/c1ccc(O)c(O)c1O,110%,
COc1cc(NC(=S)NCc2ccco2)cc(OC)c1OC,inactive: -47.4%,
CCOCCCNC(=O)C1CCC(=O)N1CCc1ccccc1 (stereo not given),37.5%,
Fc1ccc(Nc2c(-c3ccco3)nc3ccccn23)cc1,24.1%,
COc1ccc(OCc2cccc(C(=O)N3CCCC3)c2)cc1,44.6%,
CC(C(=O)N1CCCCC1)N(C)CC(=O)Nc1cccc(F)c1 (stereo not given),inactive: -13.2%,
O=[N+]([O-])c1ccc2nc(-c3ccccc3)[nH]c2c1,57.7%,
CCC1CCCCN1S(=O)(=O)c1ccc(NC(=O)c2ccncc2)cc1 (stereo not given),inactive: -52.2%,
Cn1c(N)c(C(=O)COC(=O)c2ccnc3ccccc23)c(=O)n(C)c1=O,138%,
Oc1c(Cl)cc(CN2CCOCC2)c2cccnc12,inactive: -32.8%,

# Six entries out of the list, sorted by molar mass, rising:
SMILES,"activity change, positive = activation",Potency
COc1ccccc1/C=C/C(=O)c1ccccc1,,active: 31.6 µM
Cc1cc(C)nc(Nc2nc3ccccc3[nH]2)n1,36.4%,
COc1cc(NC(=S)NCc2ccco2)cc(OC)c1OC,inactive: -47.4%,
CC(C)(C)c1ccc(Cn2cnc(-c3ccc([N+](=O)[O-])cc3)c2)cc1,,active: 28.2 µM
CCc1nnc(N/N=C/c2cc(Br)c(O)cc2O)n1N,inactive: -70.3%,
COc1ccc(S(=O)(=O)N(C(C)=O)c2ccc(OC(C)=O)c3ccccc23)cc1[N+](=O)[O-],inactive: -33.6%,
